Results reported in the supplement of paper PMC10849652.
The list shows a part of the results.

Chains of the proteins cited; added tags and fusions are not shown. Lines headed by an entry give the natural chain unless they say otherwise; changes in a name come on top.
UniProt P49427: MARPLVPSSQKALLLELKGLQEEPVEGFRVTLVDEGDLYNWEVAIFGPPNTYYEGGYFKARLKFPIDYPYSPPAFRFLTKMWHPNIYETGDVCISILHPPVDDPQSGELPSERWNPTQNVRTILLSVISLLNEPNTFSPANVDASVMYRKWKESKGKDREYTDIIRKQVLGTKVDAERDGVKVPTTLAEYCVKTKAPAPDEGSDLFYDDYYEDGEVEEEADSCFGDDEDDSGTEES
UniProt P06493, whole entry, looked up: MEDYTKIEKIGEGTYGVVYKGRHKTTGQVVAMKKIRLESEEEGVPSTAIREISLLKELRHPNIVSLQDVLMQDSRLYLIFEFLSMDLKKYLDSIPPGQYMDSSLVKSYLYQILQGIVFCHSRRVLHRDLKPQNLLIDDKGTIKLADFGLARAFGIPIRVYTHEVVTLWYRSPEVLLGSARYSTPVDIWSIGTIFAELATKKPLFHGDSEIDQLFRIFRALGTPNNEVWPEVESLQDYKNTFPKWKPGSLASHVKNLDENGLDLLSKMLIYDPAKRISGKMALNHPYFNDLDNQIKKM
UniProt Q96JB5: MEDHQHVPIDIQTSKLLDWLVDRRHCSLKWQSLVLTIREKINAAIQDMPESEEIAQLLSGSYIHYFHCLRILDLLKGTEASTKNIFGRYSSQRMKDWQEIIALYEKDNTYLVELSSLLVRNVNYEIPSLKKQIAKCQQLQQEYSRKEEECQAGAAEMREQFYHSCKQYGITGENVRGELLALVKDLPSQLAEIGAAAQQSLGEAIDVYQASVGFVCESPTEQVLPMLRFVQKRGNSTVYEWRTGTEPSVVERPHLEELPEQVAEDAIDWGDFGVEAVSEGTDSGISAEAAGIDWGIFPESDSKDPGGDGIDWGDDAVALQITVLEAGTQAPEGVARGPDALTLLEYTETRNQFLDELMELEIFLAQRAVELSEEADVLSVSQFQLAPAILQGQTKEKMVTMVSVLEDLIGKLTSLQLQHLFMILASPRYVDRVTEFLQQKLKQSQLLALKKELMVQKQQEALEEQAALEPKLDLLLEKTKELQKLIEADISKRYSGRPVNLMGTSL
UniProt Q12834, whole entry, looked up: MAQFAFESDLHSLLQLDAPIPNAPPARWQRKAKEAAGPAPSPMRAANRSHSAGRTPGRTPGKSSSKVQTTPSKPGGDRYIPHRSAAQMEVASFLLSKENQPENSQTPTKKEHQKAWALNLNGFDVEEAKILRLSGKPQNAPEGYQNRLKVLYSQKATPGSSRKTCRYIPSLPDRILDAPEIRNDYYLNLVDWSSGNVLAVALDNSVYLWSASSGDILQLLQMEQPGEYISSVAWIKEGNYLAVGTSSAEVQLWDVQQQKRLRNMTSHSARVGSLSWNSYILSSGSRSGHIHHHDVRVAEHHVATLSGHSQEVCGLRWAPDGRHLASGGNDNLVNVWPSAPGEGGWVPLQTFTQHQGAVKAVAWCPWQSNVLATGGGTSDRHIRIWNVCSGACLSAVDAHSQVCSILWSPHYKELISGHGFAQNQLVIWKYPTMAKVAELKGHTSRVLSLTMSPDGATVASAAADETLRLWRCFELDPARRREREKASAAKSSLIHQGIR
UniProt Q9H5V8, whole entry, looked up: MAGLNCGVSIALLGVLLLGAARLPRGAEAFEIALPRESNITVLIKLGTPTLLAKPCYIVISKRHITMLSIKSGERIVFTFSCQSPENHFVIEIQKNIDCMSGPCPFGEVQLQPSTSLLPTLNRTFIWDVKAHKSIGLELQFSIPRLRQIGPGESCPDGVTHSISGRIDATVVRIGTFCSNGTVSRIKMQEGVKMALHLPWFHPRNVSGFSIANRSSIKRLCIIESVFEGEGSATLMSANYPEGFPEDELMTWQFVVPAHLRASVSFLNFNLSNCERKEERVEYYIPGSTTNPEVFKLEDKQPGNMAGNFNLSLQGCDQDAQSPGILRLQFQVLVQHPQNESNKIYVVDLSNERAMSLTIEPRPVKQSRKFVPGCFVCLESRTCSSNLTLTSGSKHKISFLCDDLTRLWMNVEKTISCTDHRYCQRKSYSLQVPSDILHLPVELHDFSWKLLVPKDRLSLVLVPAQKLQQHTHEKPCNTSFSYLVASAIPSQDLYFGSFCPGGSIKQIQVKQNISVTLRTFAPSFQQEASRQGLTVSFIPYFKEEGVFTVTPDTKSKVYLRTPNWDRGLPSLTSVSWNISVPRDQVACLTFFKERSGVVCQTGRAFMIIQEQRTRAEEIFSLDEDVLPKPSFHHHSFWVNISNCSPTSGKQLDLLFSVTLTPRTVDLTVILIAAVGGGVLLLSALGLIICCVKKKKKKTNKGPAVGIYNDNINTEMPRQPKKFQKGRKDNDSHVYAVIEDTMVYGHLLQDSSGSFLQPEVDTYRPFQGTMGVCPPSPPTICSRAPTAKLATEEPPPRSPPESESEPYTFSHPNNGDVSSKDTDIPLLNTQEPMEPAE
UniProt Q86X02: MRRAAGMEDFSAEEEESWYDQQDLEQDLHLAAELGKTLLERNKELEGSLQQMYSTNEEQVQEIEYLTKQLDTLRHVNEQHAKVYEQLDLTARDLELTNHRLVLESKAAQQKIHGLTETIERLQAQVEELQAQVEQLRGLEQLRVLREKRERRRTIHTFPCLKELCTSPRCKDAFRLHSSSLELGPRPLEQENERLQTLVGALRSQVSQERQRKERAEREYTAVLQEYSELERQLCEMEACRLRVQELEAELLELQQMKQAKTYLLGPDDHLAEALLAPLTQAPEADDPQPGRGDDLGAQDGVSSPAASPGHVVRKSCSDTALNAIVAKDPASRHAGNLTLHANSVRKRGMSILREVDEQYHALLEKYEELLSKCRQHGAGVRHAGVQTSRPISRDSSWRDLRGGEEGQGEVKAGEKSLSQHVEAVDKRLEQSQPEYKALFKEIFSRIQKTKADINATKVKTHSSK
UniProt Q96G23: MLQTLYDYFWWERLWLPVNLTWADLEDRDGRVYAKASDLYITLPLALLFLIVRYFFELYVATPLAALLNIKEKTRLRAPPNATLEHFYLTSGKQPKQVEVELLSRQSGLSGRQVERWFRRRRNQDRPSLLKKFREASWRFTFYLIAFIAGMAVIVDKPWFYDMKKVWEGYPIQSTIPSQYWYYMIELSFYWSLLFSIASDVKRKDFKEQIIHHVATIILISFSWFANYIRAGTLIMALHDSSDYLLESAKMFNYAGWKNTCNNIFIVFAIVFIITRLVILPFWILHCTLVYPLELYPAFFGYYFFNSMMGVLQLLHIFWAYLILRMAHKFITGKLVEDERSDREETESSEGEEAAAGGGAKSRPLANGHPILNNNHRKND
UniProt P11802: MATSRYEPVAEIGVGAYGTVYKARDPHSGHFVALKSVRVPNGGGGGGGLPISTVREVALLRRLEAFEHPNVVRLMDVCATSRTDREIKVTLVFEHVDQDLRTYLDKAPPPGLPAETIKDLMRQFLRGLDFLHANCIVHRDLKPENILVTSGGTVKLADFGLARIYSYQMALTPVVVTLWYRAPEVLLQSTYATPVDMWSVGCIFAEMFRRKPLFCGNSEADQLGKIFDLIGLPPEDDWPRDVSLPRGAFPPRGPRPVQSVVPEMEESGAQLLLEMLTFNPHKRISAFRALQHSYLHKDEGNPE
UniProt Q9NXV6: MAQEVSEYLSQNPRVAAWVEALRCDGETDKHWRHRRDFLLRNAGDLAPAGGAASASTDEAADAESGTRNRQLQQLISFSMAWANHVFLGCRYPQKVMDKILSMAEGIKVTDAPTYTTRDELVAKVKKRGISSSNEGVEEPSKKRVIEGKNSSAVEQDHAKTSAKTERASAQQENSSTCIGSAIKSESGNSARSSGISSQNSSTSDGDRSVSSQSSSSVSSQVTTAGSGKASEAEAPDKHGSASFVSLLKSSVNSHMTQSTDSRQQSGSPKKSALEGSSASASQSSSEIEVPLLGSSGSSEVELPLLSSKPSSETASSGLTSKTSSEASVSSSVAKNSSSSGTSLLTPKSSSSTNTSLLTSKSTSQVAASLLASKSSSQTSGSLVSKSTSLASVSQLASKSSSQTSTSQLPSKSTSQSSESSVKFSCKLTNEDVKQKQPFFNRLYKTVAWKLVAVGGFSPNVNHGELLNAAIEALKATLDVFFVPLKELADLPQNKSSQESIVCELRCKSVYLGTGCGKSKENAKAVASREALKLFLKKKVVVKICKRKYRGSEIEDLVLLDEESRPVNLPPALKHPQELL
UniProt Q9Y5P4: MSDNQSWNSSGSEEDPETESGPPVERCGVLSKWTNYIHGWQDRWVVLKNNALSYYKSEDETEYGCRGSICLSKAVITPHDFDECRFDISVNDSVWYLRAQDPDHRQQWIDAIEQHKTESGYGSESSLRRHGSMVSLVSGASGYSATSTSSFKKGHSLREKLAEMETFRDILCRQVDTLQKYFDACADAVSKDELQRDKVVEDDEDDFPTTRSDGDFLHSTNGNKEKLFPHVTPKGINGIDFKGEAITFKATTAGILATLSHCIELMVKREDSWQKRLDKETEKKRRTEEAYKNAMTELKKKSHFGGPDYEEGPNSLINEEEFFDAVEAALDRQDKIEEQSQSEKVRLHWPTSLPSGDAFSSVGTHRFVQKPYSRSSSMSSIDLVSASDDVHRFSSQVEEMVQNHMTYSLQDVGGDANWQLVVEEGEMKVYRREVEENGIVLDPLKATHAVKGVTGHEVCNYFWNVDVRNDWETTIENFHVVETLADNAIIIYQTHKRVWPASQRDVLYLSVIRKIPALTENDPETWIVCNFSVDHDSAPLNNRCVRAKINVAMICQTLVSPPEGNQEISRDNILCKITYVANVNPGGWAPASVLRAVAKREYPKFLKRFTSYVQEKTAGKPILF
UniProt Q00534, whole entry, looked up: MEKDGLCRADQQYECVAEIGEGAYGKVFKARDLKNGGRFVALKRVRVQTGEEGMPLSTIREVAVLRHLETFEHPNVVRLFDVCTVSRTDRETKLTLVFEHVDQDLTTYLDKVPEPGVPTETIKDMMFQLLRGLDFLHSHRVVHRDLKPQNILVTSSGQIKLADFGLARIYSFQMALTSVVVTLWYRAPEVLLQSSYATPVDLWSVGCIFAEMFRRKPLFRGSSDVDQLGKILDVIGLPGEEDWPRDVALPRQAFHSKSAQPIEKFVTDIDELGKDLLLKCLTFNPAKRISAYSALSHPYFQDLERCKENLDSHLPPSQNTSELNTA
UniProt Q6P2H3: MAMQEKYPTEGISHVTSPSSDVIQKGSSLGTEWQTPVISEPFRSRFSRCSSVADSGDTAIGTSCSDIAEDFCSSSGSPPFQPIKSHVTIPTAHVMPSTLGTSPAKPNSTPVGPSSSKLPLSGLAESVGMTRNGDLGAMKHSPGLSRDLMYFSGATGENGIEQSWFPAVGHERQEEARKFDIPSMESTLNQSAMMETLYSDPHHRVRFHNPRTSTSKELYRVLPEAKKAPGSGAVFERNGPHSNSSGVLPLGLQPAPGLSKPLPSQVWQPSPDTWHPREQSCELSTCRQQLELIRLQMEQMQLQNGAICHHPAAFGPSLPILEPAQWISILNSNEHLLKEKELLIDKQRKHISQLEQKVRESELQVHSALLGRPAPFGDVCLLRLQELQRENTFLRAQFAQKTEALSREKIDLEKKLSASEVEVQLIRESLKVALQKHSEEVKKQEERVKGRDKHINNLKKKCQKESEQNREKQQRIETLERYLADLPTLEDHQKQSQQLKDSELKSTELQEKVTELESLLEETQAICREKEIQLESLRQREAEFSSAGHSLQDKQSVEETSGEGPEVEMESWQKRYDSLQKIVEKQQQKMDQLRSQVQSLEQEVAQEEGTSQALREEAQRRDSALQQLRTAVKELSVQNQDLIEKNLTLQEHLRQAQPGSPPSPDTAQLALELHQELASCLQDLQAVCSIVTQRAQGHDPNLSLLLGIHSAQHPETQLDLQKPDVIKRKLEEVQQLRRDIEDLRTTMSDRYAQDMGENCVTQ
UniProt Q01850: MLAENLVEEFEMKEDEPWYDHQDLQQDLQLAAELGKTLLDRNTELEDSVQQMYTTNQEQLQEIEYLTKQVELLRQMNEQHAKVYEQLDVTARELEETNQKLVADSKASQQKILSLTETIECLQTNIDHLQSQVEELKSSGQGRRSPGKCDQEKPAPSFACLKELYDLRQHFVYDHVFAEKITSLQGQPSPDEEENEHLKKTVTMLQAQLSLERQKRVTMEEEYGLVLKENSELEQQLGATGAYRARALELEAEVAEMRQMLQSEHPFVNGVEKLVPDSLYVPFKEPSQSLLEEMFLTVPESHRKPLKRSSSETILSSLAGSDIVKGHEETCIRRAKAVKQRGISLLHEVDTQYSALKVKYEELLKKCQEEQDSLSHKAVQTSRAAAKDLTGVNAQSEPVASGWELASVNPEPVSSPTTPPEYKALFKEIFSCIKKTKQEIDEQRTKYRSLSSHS

How the values were obtained:
Assay in all cases: log2 fold change, soluble protein after heating vs DMSO (PISA); higher = thermal stabilisation; K562 lysate, 10 uM; active = over 0.2 and 3.5 SD of the protein, either way, in both replicates (recomputed)
erlotinib = compound: C#Cc1cccc(Nc2ncnc3cc(OCCOC)c(OCCOC)cc23)c1 [erlotinib]
Summary of the method: (§1)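 Quantification was by TMTpro 16plex LC-MS/MS with equalised channel sums, applied to the supernatant after 21,000xg for 90 min. Samples were crude K562 extract at 1 mg/mL protein in PBS pH 7.4 with 1 mM MgCl2, treated with 10 μM compound for 30 min, heated for 3 min across 48°C-58°C, pooled and brought to 0.5% NP-40 at 4°C. Values are log-two fold changes in thermal stability relative to solvent controls, from duplicates.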

[1] = compound: C/C(=N\NC(=O)C1=CC(=CC=C1)S(=O)(=O)N2CCOCC2)/C3=C(C=CC(=C3)Cl)O
Summary of the method: as §1

[2] = compound: C1=CC(=CC=C1C2=NC3=C(N2)C=C(C=C3)C(=O)N)OC4=CC=C(C=C4)Cl
Summary of the method: as §1

[3] = compound: C1=CC2=C(C=CC(=C2)/C=C\3/C(=O)NC(=NCC4=CC=CS4)S3)N=C1
Summary of the method: as §1

[4] = compound: C1=CC2=NC=CN=C2C=C1/C=C/3\C(=O)NC(=O)S3
Summary of the method: as §1

[5] = compound: C1=CC=C(C=C1)C2=NC(=C(N2)C3=CC=NC=C3)C4=CC(=C(C=C4)Cl)O
Summary of the method: as §1

[6] = compound: C1=CC=C2C(=C1)C3=NNC4=CC=CC(=C43)C2=O
Summary of the method: as §1

[7] = compound: C1CCN(C1)C(=O)NC2=CC=CC(=C2)NC3=NC=C(C(=N3)NCCC4=CN=CN4)Br
Summary of the method: as §1

[8] = compound: C1CN(CCC1(CC2=CC=C(C=C2)Cl)N)C3=NC=NC4=C3C=CN4
Summary of the method: as §1

IRAK-1-4 Inhibitor I = compound: C1COCCN1CCN2C3=CC=CC=C3N=C2NC(=O)C4=CC(=CC=C4)[N+](=O)[O-] [IRAK-1-4 Inhibitor I]
Summary of the method: as §1

ibrutinib = compound: C=CC(=O)N1CCC[C@@H](n2nc(-c3ccc(Oc4ccccc4)cc3)c3c(N)ncnc32)C1 [ibrutinib]
Summary of the method: as §1

[9] = compound: CC(=O)c1cnc2ccc(-c3cc(Cl)c(O)c(Cl)c3)nc2c1N[C@H]1CC[C@H](CN(C)C)CC1
Summary of the method: as §1

ralimetinib = compound: CC(C)(C)Cn1c(N)nc2ccc(-c3[nH]c(C(C)(C)C)nc3-c3ccc(F)cc3)nc21 [ralimetinib]
Summary of the method: as §1

[10] = compound: CC(C)(O)CC(=O)NCCn1ccc2ncnc(Nc3ccc(Oc4cccc(C(F)(F)F)c4)c(Cl)c3)c21
Summary of the method: as §1

[11] = compound: CC(C)C1=C2N=C(C=C(N2N=C1)NCC3=CC=CC=C3)NCCCCCCN
Summary of the method: as §1

[12] = compound: CC1=C(C(CC(=O)N1)C2=CC=C(C=C2)C(F)(F)F)C(=O)NC3=C(C=C4C(=C3)C=NN4)F
Summary of the method: as §1

[13] = compound: CC1=C(C2=C(C=C1)C(=O)C3=CC=CC=C3N2CCCN)C
Summary of the method: as §1

[14] = compound: CC1=C(C=C(C=C1)NC(=O)C2=CC(=CC=C2)C(C)(C)C#N)NC3=CC4=C(C=C3)N=CN(C4=O)C
Summary of the method: as §1

[15] = compound: CC1=C(C=C(C=C1)NC(=O)C2=CC(=CC=C2)N(C)C)NC(=O)C3=CC=C(C=C3)O
Summary of the method: as §1

[16] = compound: CC1=CC=C(C=C1)SC2=C3C=C(SC3=CN=C2)C(=O)N
Summary of the method: as §1

Measured: log2 fold change

CDC34 (UniProt P49427)
inactive: erlotinib 0.005 | [1] -0.081 | [2] -0.069 | [3] -0.004 | [4] 0.03 | [5] -0.025 | [6] 0.002 | [7] 0.07 | [8] 0.019 | IRAK-1-4 Inhibitor I -0.071 | ibrutinib 0.018 | [9] 0.01 | ralimetinib -0.004 | [10] 0.023 | [11] -0.065 | [12] -0.009 | [13] 0.04 | [14] 0 | [15] 0.017 | [16] -0.101

CDK1 (UniProt P06493)
active: [9] 0.433
inactive: erlotinib -0.038 | [1] 0.046 | [2] -0.019 | [3] -0.031 | [4] -0.002 | [5] -0.01 | [6] -0.051 | [7] -0.007 | [8] -0.002 | IRAK-1-4 Inhibitor I -0.017 | ibrutinib -0.071 | ralimetinib 0.018 | [10] -0.037 | [11] -0.026 | [12] -0.029 | [13] 0.01 | [14] 0.033 | [15] 0.011 | [16] 0

CDK5RAP3 isoform 4 (UniProt Q96JB5)
inactive: erlotinib 0.009 | [1] -0.068 | [2] -0.011 | [3] -0.018 | [4] 0.031 | [5] -0.002 | [6] -0.014 | [7] -0.016 | [8] 0.016 | IRAK-1-4 Inhibitor I 0.022 | ibrutinib -0.01 | [9] -0.001 | ralimetinib -0.022 | [10] -0.022 | [11] -0.016 | [12] 0.004 | [13] 0.013 | [14] 0.025 | [15] 0.017 | [16] 0.014

CEP290 (UniProt O15078)
inactive: erlotinib -0.06 | [1] -0.036 | [2] -0.079 | [3] -0.04 | [4] 0.047 | [5] -0.156 | [6] 0.016 | [7] 0 | [8] -0.029 | IRAK-1-4 Inhibitor I 0.044 | ibrutinib -0.102 | [9] -0.003 | ralimetinib 0.101 | [10] -0.205 | [11] -0.057 | [12] -0.006 | [13] -0.043 | [14] 0.044 | [15] -0.018 | [16] -0.005

CDC20 (UniProt Q12834)
inactive: erlotinib 0.017 | [1] -0.537 | [2] 0 | [3] 0.019 | [4] -0.094 | [5] 0.056 | [6] 0.106 | [7] -0.091 | [8] 0.071 | IRAK-1-4 Inhibitor I -0.001 | ibrutinib 0.04 | [9] 0.03 | ralimetinib -0.036 | [10] 0.018 | [11] 0.042 | [12] -0.006 | [13] -0.081 | [14] 0.035 | [15] -0.064 | [16] 0.091

CDCP1 (UniProt Q9H5V8)
inactive: erlotinib -0.04 | [1] 0.086 | [2] 0.04 | [3] -0.011 | [4] 0.011 | [5] 0.025 | [6] 0.02 | [7] 0.029 | [8] 0.008 | IRAK-1-4 Inhibitor I 0.063 | ibrutinib 0.039 | [9] -0.022 | ralimetinib 0.08 | [10] -0.013 | [11] -0.057 | [12] 0.008 | [13] 0.017 | [14] -0.007 | [15] -0.008 | [16] -0.019

CDR2L (UniProt Q86X02)
inactive: erlotinib -0.041 | [1] 0.038 | [2] -0.062 | [3] -0.021 | [4] -0.082 | [5] -0.012 | [6] -0.066 | [7] -0.063 | [8] -0.064 | IRAK-1-4 Inhibitor I 0.078 | ibrutinib 0.06 | [9] 0.039 | ralimetinib -0.013 | [10] -0.079 | [11] 0.043 | [12] -0.022 | [13] 0.055 | [14] -0.02 | [15] -0.035 | [16] -0.081

CERS2 (UniProt Q96G23)
inactive: erlotinib 0.029 | [1] -0.033 | [2] -0.019 | [3] 0.063 | [4] -0.031 | [5] -0.04 | [6] -0.015 | [7] 0.051 | [8] 0.024 | IRAK-1-4 Inhibitor I -0.083 | ibrutinib 0.056 | [9] 0.006 | ralimetinib 0.194 | [10] 0.035 | [11] 0.006 | [12] -0.059 | [13] 0.039 | [14] 0.038 | [15] -0.008 | [16] 0.012

4 successive records from above:
CDK1 (UniProt P06493)
active: [9] 0.433
inactive: erlotinib -0.038 | [1] 0.046 | [2] -0.019 | [3] -0.031 | [4] -0.002 | [5] -0.01 | [6] -0.051 | [7] -0.007 | [8] -0.002 | IRAK-1-4 Inhibitor I -0.017 | ibrutinib -0.071 | ralimetinib 0.018 | [10] -0.037 | [11] -0.026 | [12] -0.029 | [13] 0.01 | [14] 0.033 | [15] 0.011 | [16] 0

CDK5RAP3 isoform 4 (UniProt Q96JB5)
inactive: erlotinib 0.009 | [1] -0.068 | [2] -0.011 | [3] -0.018 | [4] 0.031 | [5] -0.002 | [6] -0.014 | [7] -0.016 | [8] 0.016 | IRAK-1-4 Inhibitor I 0.022 | ibrutinib -0.01 | [9] -0.001 | ralimetinib -0.022 | [10] -0.022 | [11] -0.016 | [12] 0.004 | [13] 0.013 | [14] 0.025 | [15] 0.017 | [16] 0.014

CEP290 (UniProt O15078)
inactive: erlotinib -0.06 | [1] -0.036 | [2] -0.079 | [3] -0.04 | [4] 0.047 | [5] -0.156 | [6] 0.016 | [7] 0 | [8] -0.029 | IRAK-1-4 Inhibitor I 0.044 | ibrutinib -0.102 | [9] -0.003 | ralimetinib 0.101 | [10] -0.205 | [11] -0.057 | [12] -0.006 | [13] -0.043 | [14] 0.044 | [15] -0.018 | [16] -0.005

CDC20 (UniProt Q12834)
inactive: erlotinib 0.017 | [1] -0.537 | [2] 0 | [3] 0.019 | [4] -0.094 | [5] 0.056 | [6] 0.106 | [7] -0.091 | [8] 0.071 | IRAK-1-4 Inhibitor I -0.001 | ibrutinib 0.04 | [9] 0.03 | ralimetinib -0.036 | [10] 0.018 | [11] 0.042 | [12] -0.006 | [13] -0.081 | [14] 0.035 | [15] -0.064 | [16] 0.091

Next part.

CDC42BPA isoform 6 (UniProt Q5VT25)
inactive: erlotinib -0.007 | [1] 0.077 | [2] -0.086 | [3] 0.011 | [4] -0.012 | [5] -0.029 | [6] -0.09 | [7] -0.032 | [8] -0.006 | IRAK-1-4 Inhibitor I -0.038 | ibrutinib 0.016 | [9] 0.039 | ralimetinib 0.012 | [10] -0.013 | [11] 0.03 | [12] 0.005 | [13] -0.004 | [14] 0.018 | [15] 0.034 | [16] -0.003

CEP44 (UniProt Q9C0F1)
inactive: erlotinib -0.016 | [1] 0.005 | [2] 0.002 | [3] 0.031 | [4] -0.006 | [5] 0.012 | [6] 0.075 | [7] 0.017 | [8] 0.007 | IRAK-1-4 Inhibitor I 0.026 | ibrutinib 0.038 | [9] -0.05 | ralimetinib 0.031 | [10] -0.039 | [11] -0.037 | [12] -0.009 | [13] -0.008 | [14] -0.026 | [15] 0.054 | [16] -0.02

CDK4 (UniProt P11802)
inactive: erlotinib -0.03 | [1] -0.094 | [2] -0.026 | [3] -0.028 | [4] 0 | [5] -0.008 | [6] 0.068 | [7] 0 | [8] 0.049 | IRAK-1-4 Inhibitor I -0.002 | ibrutinib 0.072 | [9] 0.137 | ralimetinib -0.032 | [10] -0.052 | [11] -0.007 | [12] 0 | [13] -0.066 | [14] -0.019 | [15] -0.009 | [16] -0.035

CDKN2AIP (UniProt Q9NXV6)
inactive: erlotinib -0.047 | [1] 0.067 | [2] 0.072 | [3] -0.01 | [4] -0.074 | [5] -0.006 | [6] -0.079 | [7] -0.038 | [8] 0 | IRAK-1-4 Inhibitor I 0.048 | ibrutinib -0.003 | [9] -0.038 | ralimetinib -0.013 | [10] 0.029 | [11] -0.04 | [12] -0.009 | [13] 0.03 | [14] 0.004 | [15] -0.019 | [16] -0.009

CERT isoform 3 (UniProt Q9Y5P4)
inactive: erlotinib -0.004 | [1] -0.003 | [2] 0.008 | [3] 0.019 | [4] -0.018 | [5] -0.002 | [6] -0.008 | [7] 0.005 | [8] 0.019 | IRAK-1-4 Inhibitor I -0.018 | ibrutinib 0.021 | [9] 0.004 | ralimetinib 0.002 | [10] -0.006 | [11] -0.021 | [12] 0.016 | [13] -0.028 | [14] 0.003 | [15] 0.019 | [16] 0.013

CDK6 (UniProt Q00534)
inactive: erlotinib -0.009 | [1] 0.003 | [2] 0.012 | [3] 0.006 | [4] 0.01 | [5] 0.033 | [6] 0.071 | [7] -0.005 | [8] -0.03 | IRAK-1-4 Inhibitor I -0.016 | ibrutinib 0.011 | [9] -0.01 | ralimetinib -0.005 | [10] 0.003 | [11] -0.031 | [12] -0.013 | [13] 0.023 | [14] -0.041 | [15] -0.009 | [16] -0.003

CEP85 isoform 2 (UniProt Q6P2H3)
inactive: erlotinib 0.019 | [1] -0.043 | [2] -0.062 | [3] -0.004 | [4] 0.002 | [5] -0.006 | [6] 0.011 | [7] 0.021 | [8] 0.027 | IRAK-1-4 Inhibitor I 0.003 | ibrutinib -0.004 | [9] -0.053 | ralimetinib -0.023 | [10] -0.007 | [11] 0.004 | [12] 0.076 | [13] 0 | [14] -0.032 | [15] 0.02 | [16] 0.043

CDR2 (UniProt Q01850)
inactive: erlotinib 0.012 | [1] -0.014 | [2] -0.01 | [3] 0.006 | [4] 0.045 | [5] 0.053 | [6] -0.051 | [7] -0.058 | [8] -0.027 | IRAK-1-4 Inhibitor I -0.04 | ibrutinib 0.057 | [9] -0.024 | ralimetinib 0.022 | [10] -0.034 | [11] 0.016 | [12] 0.004 | [13] 0.008 | [14] 0.022 | [15] 0.016 | [16] 0.081
